Source: patent US11474098B2, “Drug target for preventing pathologic calcium overload in cardiomyocytes and methods of screening for same” (THE TRUSTEES OF COLUMBIA UNIVERSITY IN THE CITY OF NEW YORK, priority 2017, dated 2022)
At least one compound was matched to its structure with a doubt left.

Tests used:
[1] = test system: left ventricular contraction in isolated Langendorff-perfused hearts; assay: Ex vivo cardiac contractility, Langendorff-perfused hearts with left ventricular balloon; design: species or system mouse; settings: 300 nM nisoldipine
Method: Hearts from these mice are isolated and contractility is assessed by placing a balloon in the left ventricle.
The cannulated hearts were retrogradely perfused on a Langendorff system with a modified Krebs solution (118.5 mM NaCl, 25 mM NaHCO3, 4.7 mM KCl, 1.2 mM MgSO4, 1.2 mM KH2PO4, 11 mM glucose, 1.8 mM Ca^2+). Left ventricular pressure was measured using a balloon catheter connected to an APT-300 pressure transducer, which was connected to a Powerlab digitizer (ADInstruments). […] Peak LV pressure during the 3-minute period was used for the assessment of β-adrenergic agonist stimulation.
We then assessed the role of CaV1.2 modulation in β-adrenergic agonist-induced positive inotropy at the whole organ level by inserting a pressure-transduced balloon into the left ventricle of Langendorff-perfused transgenic mice hearts. This approach enabled measurement of cardiac contractility independent of vascular or systemic effects. Hearts were paced at 400 beats per minute to remove the potentially confounding effect of heart rate variability on contractility (Kushnir et al. 2014). […] By contrast, using the same experimental paradigm in hearts from β-less AID-mutant transgenic mice, the response to isoproterenol was nearly abolished, yielding an average increase in cardiac contractility of only 1.2-fold (FIG. 10H and FIG. 10I).

isolated cardiomyocytes = assay: Fractional shortening (sarcomere length) of field-stimulated isolated cardiomyocytes; format: cell-based, mouse; settings: cardiomyocytes from transgenic AID-mutant α1C mice; 300 nM nisoldipine
Method: Myocytes were field stimulated at 1-Hz. Percent contraction of sarcomere length was measured using the SarcLen module of Ionoptix and calculated as the difference of shortest sarcomere length during a contraction subtracted from the relaxed sarcomere length, divided by the relaxed sarcomere length, all averaged over at least 8 contractions.
We next exploited the findings that transgenic β-less AID-mutant α1C channels are insensitive to PKA modulation to probe the specific role of CaV1.2 modulation in the positive inotropic effect of β-adrenergic agonists in both isolated cardiomyocytes and in the whole heart. […] By contrast, this response was severely diminished in cardiomyocytes expressing transgenic β-less AID-mutant α1C channels in which isoproterenol produced a relatively meager 25% increase in fractional shortening (FIG. 10B and FIG. 10C).

In the case of `COC(=O)C1=C(C)NC(C)=C(C(=O)OCC(C)C)C1c1ccccc1[N+](=O)[O-]` (stereo not drawn) [nisoldipine], the “effect on basal cardiac contractility” value ([1]; hearts from non-transgenic mice) is reported as “markedly reduced”, the “effect on basal cardiac contractility” value ([1]; pWT α1C hearts (DHP-resistant channels)) is reported as “comparatively weaker effect” and the “field-stimulated contraction in the presence of nisoldipine” value (isolated cardiomyocytes) is reported as “persisted”.
